Measurements as given in US9260476B2, “RNA targeting compounds and methods for making and using same” (The Research Foundation for The State University of New York, priority 2007, dated 2016).
Some entries share one result that the patent states for a list of compounds.

System: C2C12 cell line expressing firefly luciferase mRNA with r(CUG)800 in the 3′ UTR
Test: Luciferase translational defect assay, r(CUG)800 in the 3′ UTR
Type: cell-based
Settings: 10 μM

## CCCN(CC(=O)N(CCC)CC(=O)N(CCC)CC(=O)N(CCC)CC(=O)N(CC(=O)N(CCC)CC(=O)N(CCC)CC(=O)N(CCC)CC(=O)N(CCC)CC(=O)N(CC(N)=O)Cc1cn(CCCNC(=O)CCCOc2cccc(-c3nc4ccc(-c5nc6ccc(N7CCN(C)CC7)cc6[nH]5)cc4[nH]3)c2)nn1)Cc1cn(CCCNC(=O)CCCOc2cccc(-c3nc4ccc(-c5nc6ccc(N7CCN(C)CC7)cc6[nH]5)cc4[nH]3)c2)nn1)C(=O)CNCc1cn(CCCNC(=O)CCCOc2cccc(-c3nc4ccc(-c5nc6ccc(N7CCN(C)CC7)cc6[nH]5)cc4[nH]3)c2)nn1 [Compound 3H-4]
  increase in luciferase activity: ≥ 150%
